Results: article PMC7819943, “Rice protein-binding microarrays: a tool to detect cis-acting elements near promoter regions in rice”
The list shows a part of the results.

The chains behind the UniProt entries cited, without tags or fusion partners.
UniProt Q0JBA9, entry or part of it: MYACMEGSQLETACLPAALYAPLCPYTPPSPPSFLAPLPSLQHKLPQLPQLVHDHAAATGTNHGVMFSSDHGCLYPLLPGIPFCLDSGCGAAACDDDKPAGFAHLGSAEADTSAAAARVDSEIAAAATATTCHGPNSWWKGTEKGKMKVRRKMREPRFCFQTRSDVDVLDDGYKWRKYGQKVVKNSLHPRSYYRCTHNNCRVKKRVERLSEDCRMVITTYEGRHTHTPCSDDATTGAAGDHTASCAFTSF

molecular target: OsWRKY34 (Oryza sativa, UniProt Q0JBA9 1-250); test: protein-binding microarray (RPBM); PBS, 2% BSA, 51.3 ng/ul salmon testes DNA, 50 uM zinc acetate, 200 nM TF, 25 C, 1 h; high values mean tight binding; conditions: protein: recombinant; tags: N-terminal polyhistidine and DsRed monomer fusion (pET32a); label: CyDye5-dUTP incorporated in the synthesized complementary strand; 3' TTTTT single-stranded linker to array surface; dsDNA, one strand shown
How it was run: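 Transcription factors were made in E. coli BL21-CodonPlus as N-terminal fusions to a polyhistidine tag and DsRed, then purified on Ni–NTA. After primer extension with Cy5-dUTP and blocking with 2% BSA, a custom Agilent array was exposed for 1 h at 25 °C to 200 nM protein in PBS, 2% BSA, salmon testes DNA and 50 µM zinc acetate. Washed arrays were scanned on an Axon 4000B, and the binding signal is per-feature fluorescence intensity in arbitrary units.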

Row | Sequence | binding signal
1 | ATTTGAGTTCAATTTTTCTATGGTTGGTTCTTGTGTGTCCCGGAGTCACCTAGTGCAG | 8160 fluorescence intensity (a.u.)
2 | AAAATCCTTTTATGTCCTTGCCGTTGAATTGTTATAATTTCGGAGTCACCTAGTGCAG | 8780 fluorescence intensity (a.u.)
3 | TACTCTGCCTCTCGTTGTTGTCTTCTTCTTCTTGCCTTCTCGGAGTCACCTAGTGCAG | 9160 fluorescence intensity (a.u.)
4 | GTCCCACATATATGTTTTTAATTCAAATGCCACCTAAGCGCGGAGTCACCTAGTGCAG | 8490 fluorescence intensity (a.u.)
5 | TGGGGATGGCGGAGGTTAGCGGCGCGCTTTTTTTTCTATTCGGAGTCACCTAGTGCAG | 14500 fluorescence intensity (a.u.)
6 | GGCCCGAAACGCATACTCTGCCGGCGTACACATGTCACAGCGGAGTCACCTAGTGCAG | 9100 fluorescence intensity (a.u.)
7 | AGTCCTTATTACCGTTTGATCATCAGAGCATCCACACCCACGGAGTCACCTAGTGCAG | 8590 fluorescence intensity (a.u.)
8 | ATTTCAATCTCTATAGGTTCTCTGATCTCGTTCGCAATCCCGGAGTCACCTAGTGCAG | 9280 fluorescence intensity (a.u.)
9 | CTTTTATACGCGCCAGTCACGCCGCCGCTCGTCCCGTTTCCGGAGTCACCTAGTGCAG | 11100 fluorescence intensity (a.u.)
10 | AGTAATGACGACCTCTTTATATTTTAGACTTTTACTAACACGGAGTCACCTAGTGCAG | 8030 fluorescence intensity (a.u.)
11 | GAGGAGACGCTCATATGAGTGGGTTGAGGGTGGGCCAGTGCGGAGTCACCTAGTGCAG | 8620 fluorescence intensity (a.u.)
12 | CGAGGGAGGGGAGGCGGCGGAGGCGAGAGAGGAGAGGGGACGGAGTCACCTAGTGCAG | 11000 fluorescence intensity (a.u.)
13 | ATTTTTTTTGTTGCCAACAACTTTTGGATAATACGGATCTCGGAGTCACCTAGTGCAG | 8250 fluorescence intensity (a.u.)
14 | TGTTGTTTTTTTTTTTTTGGTCTCGCGAAATCCAAAGACCCGGAGTCACCTAGTGCAG | 8200 fluorescence intensity (a.u.)
15 | TTTTATGCTCTCAGATGTGTGTGATCTGAATTCCTTTTTTCGGAGTCACCTAGTGCAG | 10200 fluorescence intensity (a.u.)
16 | AGTTGATTCGTTGACTTGTTCTTTGCGCGATTAGGAAAAGCGGAGTCACCTAGTGCAG | 9250 fluorescence intensity (a.u.)
17 | GGCGGCGGAGGAGGAGGAGGCGCGAGGGGAGGCGAGCATGCGGAGTCACCTAGTGCAG | 8150 fluorescence intensity (a.u.)
18 | GGATCACTACATTCAACAAAATATGTACCGTCATATCCCACGGAGTCACCTAGTGCAG | 8160 fluorescence intensity (a.u.)
19 | GCTGTTATTGGTTTCAAATTTTCATCTAGCTCCTAATTGTCGGAGTCACCTAGTGCAG | 8390 fluorescence intensity (a.u.)
20 | AAATCCCTCTGCATGTTTGCTACTCGCTTCGTCCCACACGCGGAGTCACCTAGTGCAG | 8030 fluorescence intensity (a.u.)
21 | TTTCATTCACGTGCGGCCCAAGAATGGGATTGCGACTTTCCGGAGTCACCTAGTGCAG | 8190 fluorescence intensity (a.u.)

Reformatted: entries from further up
Row,Sequence,binding signal
10,AGTAATGACGACCTCTTTATATTTTAGACTTTTACTAACACGGAGTCACCTAGTGCAG,8030 fluorescence intensity (a.u.)
11,GAGGAGACGCTCATATGAGTGGGTTGAGGGTGGGCCAGTGCGGAGTCACCTAGTGCAG,8620 fluorescence intensity (a.u.)
12,CGAGGGAGGGGAGGCGGCGGAGGCGAGAGAGGAGAGGGGACGGAGTCACCTAGTGCAG,11000 fluorescence intensity (a.u.)
13,ATTTTTTTTGTTGCCAACAACTTTTGGATAATACGGATCTCGGAGTCACCTAGTGCAG,8250 fluorescence intensity (a.u.)
14,TGTTGTTTTTTTTTTTTTGGTCTCGCGAAATCCAAAGACCCGGAGTCACCTAGTGCAG,8200 fluorescence intensity (a.u.)
15,TTTTATGCTCTCAGATGTGTGTGATCTGAATTCCTTTTTTCGGAGTCACCTAGTGCAG,10200 fluorescence intensity (a.u.)
16,AGTTGATTCGTTGACTTGTTCTTTGCGCGATTAGGAAAAGCGGAGTCACCTAGTGCAG,9250 fluorescence intensity (a.u.)
17,GGCGGCGGAGGAGGAGGAGGCGCGAGGGGAGGCGAGCATGCGGAGTCACCTAGTGCAG,8150 fluorescence intensity (a.u.)
18,GGATCACTACATTCAACAAAATATGTACCGTCATATCCCACGGAGTCACCTAGTGCAG,8160 fluorescence intensity (a.u.)
19,GCTGTTATTGGTTTCAAATTTTCATCTAGCTCCTAATTGTCGGAGTCACCTAGTGCAG,8390 fluorescence intensity (a.u.)

Following part.

Row | Sequence | binding signal
22 | GAGTACTATACGCTACTACTCCTCTAATGCTTCATCTTTGCGGAGTCACCTAGTGCAG | 8990 fluorescence intensity (a.u.)
23 | ATTCCTGAACGCTCAATGCCTCATGTCGTCGACTAGCCGGCGGAGTCACCTAGTGCAG | 9140 fluorescence intensity (a.u.)
24 | TGCACTGTTTAACCACTCGTCTTATTTAAAAATTTTTTAGCGGAGTCACCTAGTGCAG | 11200 fluorescence intensity (a.u.)
25 | CAAGTTCTGTCTCGATACCTCGATCACCTTTTCCTTGTCACGGAGTCACCTAGTGCAG | 9170 fluorescence intensity (a.u.)
26 | TCCAACATTTGACCATTCATCTTATTTGAAATTTTTTTATCGGAGTCACCTAGTGCAG | 8060 fluorescence intensity (a.u.)
27 | GTATAATTATGAACTTCGGATCTTGACTTTTGCCGTGCATCGGAGTCACCTAGTGCAG | 8780 fluorescence intensity (a.u.)
28 | GCCCTTTTCACGGTTTTTCCTGATCTTTCTGGGCTTTCTCCGGAGTCACCTAGTGCAG | 18800 fluorescence intensity (a.u.)
29 | CTCCTCCGCGCGCGCCGCCTCGACGACTTCTTCGCGCTCCCGGAGTCACCTAGTGCAG | 10800 fluorescence intensity (a.u.)
30 | TGTGCAGCTGACATATGGGCCCTATGTACTTTTTTATTTTCGGAGTCACCTAGTGCAG | 9100 fluorescence intensity (a.u.)
31 | GCTTACGTCCACACTACTTTACTCTCCGTTGGACCAAATCCGGAGTCACCTAGTGCAG | 8940 fluorescence intensity (a.u.)
32 | CTTTCTCAGGCAGAGGACGGCGCGGGTGGGCGGCGGAGCACGGAGTCACCTAGTGCAG | 9390 fluorescence intensity (a.u.)
33 | TCGGACGGCGGCGATGCAAATCTCCGTCTGTTAATGAAGACGGAGTCACCTAGTGCAG | 8980 fluorescence intensity (a.u.)
34 | ACTAACTCCACCCATACCACCTTTGTTTTCCCCATGAAAACGGAGTCACCTAGTGCAG | 8470 fluorescence intensity (a.u.)
35 | TTCCGACGGAAACTGCCCTTATCATTTCCGATTCCGTATCCGGAGTCACCTAGTGCAG | 9140 fluorescence intensity (a.u.)
36 | CCTTTTTTATTCTTGTGCATAAGCCTAAAATAACTAGTTACGGAGTCACCTAGTGCAG | 8130 fluorescence intensity (a.u.)
37 | TGCATGCGTGCTCACGTTTTGGGTGGGTGAGGGACAGAGGCGGAGTCACCTAGTGCAG | 9450 fluorescence intensity (a.u.)
38 | CGATCCAGCCACCACCATGTTCATCTCCATCGTTGGCTGGCGGAGTCACCTAGTGCAG | 9370 fluorescence intensity (a.u.)
39 | GGCCGTCGTACGTCCCGTACTTCATCGTCGCACCCTGAAACGGAGTCACCTAGTGCAG | 8790 fluorescence intensity (a.u.)
40 | AATTTACCATCACCCCAAGTGCATCACTAGCATACATTATCGGAGTCACCTAGTGCAG | 11600 fluorescence intensity (a.u.)
41 | ACGCTGGCCCTCTCAACGGCTTGGCTTTCTCTCTCTCTTTCGGAGTCACCTAGTGCAG | 8960 fluorescence intensity (a.u.)
42 | GACTCTATACTCTACTTCTAATATTCCTTATTTTTTAATTCGGAGTCACCTAGTGCAG | 12400 fluorescence intensity (a.u.)
